# Results as given in the supplement of paper PMC12259267, “Disruption of the KLHL37–N-Myc complex restores N-Myc degradation and arrests neuroblastoma growth in mouse models” (The Journal of Clinical Investigation, 2025).
# Where a name gives a salt, the structure may show the parent alone. Some of the results follow. Repeats are few or missing, and single values can be far off.
# Tested on: SK-N-BE(2)
# Assay: inhibition of N-Myc immunofluorescence signal per cell relative to control (fraction); higher = stronger N-Myc protein reduction
# Conditions: 1 µM; 9 h
row,SMILES,inhibition of N-Myc immunofluorescence signal per cell
1,Cc1ccc(N)cc1C(=O)N[C@H](C)c1cccc2ccccc12,-0.162
2,COc1cccc2c1c(O)c(C(=O)N(C)c1ccc(C(F)(F)F)cc1)c(=O)n2C [Tasquinimod],0.2
3,CCc1c(-c2ccc(C(=O)NC)nc2)cnc(N)c1-c1ccc(O)cc1,0.163
4,Nc1ccccc1NC(=O)CCCCCC(=O)Nc1ccccc1,-0.144
5,N#CN1CC[C@H](C(=O)Nc2ncc(N3CCOCC3)s2)C1,-0.0411
6,CCOC(=O)c1ccc(OC(=O)CCCCCNC(=N)N)cc1 [Gabexate (mesylate)],0.0326
7,C[C@@H](C(=O)N[C@H](C(=O)N1CCC[C@H]1c1nc(C(=O)c2cccc(O)c2)cs1)C1CCCCC1)N(C)C(=O)OC(C)(C)C [cIAP1 ligand 1],0.367
8,COc1cc2ccc(=O)oc2cc1O[C@@H]1O[C@H](CO)[C@@H](O)[C@H](O)[C@H]1O [Scopolin],0.138
9,NC(=O)C1CCCc2c1[nH]c1ccc(Cl)cc21 (stereo not given) [Selisistat],-0.0809
10,COc1cccc2c(NCc3ccccc3)nc(-n3c(N)nc4ccccc43)nc12,0.153
11,CN1CCN(c2ccc(-c3cccc(CN4CCOCC4)c3)cc2NC(=O)c2c[nH]c(=O)cc2C(F)(F)F)CC1,0.000296
12,CC(C)C[C@H](NC(=O)C(C)(C)NC(=O)c1ccccc1C(F)(F)F)B(O)O,0.152
13,CSCC[C@H](NC(=O)c1ccc(NC[C@@H](N)CS)cc1-c1ccccc1)C(=O)O,0.0318
14,CC(C)C[C@H](NC(=O)CNC(=O)c1cc(Cl)ccc1Cl)B1OC(=O)C(CC(=O)O)(CC(=O)O)O1 [Ixazomib citrate],-0.0211
15,O=C(O)c1ccc(CN2CCC(CN[C@@H]3C[C@H]3c3ccccc3)CC2)cc1,0.0778
16,O=C(c1ccc(Cl)cc1Cl)n1nnc2ccccc21,-0.0622
17,c1ccc(C2CN3CCSC3=N2)cc1 (stereo not given) [Tetramisole (hydrochloride)],-0.0517
18,COc1cc(/C=C/C(=O)CC(=O)/C=C/c2ccc(O)c(OC)c2)ccc1O [Curcumin],-0.00535

# Reformatted bar-delimited: entries from further up
row | SMILES | inhibition of N-Myc immunofluorescence signal per cell
1 | Cc1ccc(N)cc1C(=O)N[C@H](C)c1cccc2ccccc12 | -0.162
5 | N#CN1CC[C@H](C(=O)Nc2ncc(N3CCOCC3)s2)C1 | -0.0411
17 | c1ccc(C2CN3CCSC3=N2)cc1 (stereo not given) [Tetramisole (hydrochloride)] | -0.0517

# (further entries)

row,SMILES,inhibition of N-Myc immunofluorescence signal per cell
1,N#C/C(=C\c1ccc(-c2cc(Cl)ccc2Cl)o1)C(=O)Nc1cccc2ncccc12,-0.0176
2,CC(=O)c1cc([N+](=O)[O-])c(Sc2cccc(Cl)c2Cl)s1,0.148
3,O=C(O)CCCCCCCCOc1cccc2c1C(=O)N(C1CCC(=O)NC1=O)C2=O (stereo not given) [Thalidomide-O-C8-COOH],-0.0851
4,CCC(CC)n1ccc2c(C(=O)NCc3c(C)cc(C)[nH]c3=O)cc(C#N)cc21,0.154
5,O=c1c(O)c(-c2ccc(O)c(O)c2)oc2cc(O)ccc12 [Fisetin],0.0467
6,CC(=O)Nc1ccc(C(=O)Nc2ccc(F)cc2N)cc1,0.00811
7,O=C1CCC(N2Cc3c(Br)cccc3C2=O)C(=O)N1 (stereo not given) [Lenalidomide-Br],0.0485
8,O=C(O)CNC(=O)c1nc(Cl)c2ccccc2c1O,-0.109
9,O=C(O)CNC(=O)C1=C(O)CCN(Cc2ccc(Oc3ccc(Cl)cc3)nc2)C1=O,0.192
10,NC(=O)c1cccnc1 [Nicotinamide],0.085
11,O=C(CCCCCCNC(=O)c1cnc(N(c2ccccc2)c2ccccc2)nc1)NO [Ricolinostat],-0.0601
12,N#Cc1ccc(-c2csc(NN=C3CCCC3)n2)cc1 [Remodelin (hydrobromide)],0.0298
13,O=C(NCC1(c2nc(-c3ccccc3)cs2)CCOCC1)c1cccc(-c2noc(C(F)(F)F)n2)c1,-0.0101
14,C=C1C(=O)O[C@@H]2/C=C(\C)CC/C=C(\C)CC[C@@H]12 [Costunolide],0.135
15,O=C(CCCCCN1C(=O)c2cccc3cccc(c23)C1=O)NO [Scriptaid],-0.0882
16,COc1cc2c(cc1OCCCN1CCCC1)N=C(N)C21CCC1,0.0203
17,Cc1nn(-c2ccc3nnc(C)n3n2)c(C)c1CCC(=O)N1CCC(Cc2ccccc2)CC1,-0.00265
